Reference: PubChem BioAssay AID2685 (National Center for Advancing Translational Sciences (NCATS), 2010)
The other results are listed elsewhere or left out. These are further read-outs of the screen, such as a control signal, another cell line or another target. No call is given for them. The list favours compounds with an active or inconclusive main result. Words in brackets tell the shape of the fitted curve; partial curves, single points and poor fits give uncertain potencies.

Assay: qHTS Assay for Lipid Storage Modulators in Drosophila S3 Cells;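 for cell number change: cells counted by Cell Tracker Red CMTPX staining in the red channel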
Conditions: BODIPY lipid droplet fluorescence, 18-24 h; for cell number change: measured here: cell count max response, cells fed with added oleic acid
In short: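 Drosophila S3 cells loaded with oleic acid (400 uM, as added) and compounds at several concentrations; lipid droplets imaged by 488-nm laser-scanning cytometry, 500–530 nm intensity and object ratio to cell channel. Percent activity normalized to 20 uM Triacsin C.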

[1] = measured here: lipid fluorescence (Fed channel) AC50, cells fed with added oleic acid
[2] = measured here: cell number channel AC50, cells fed with added oleic acid

SMILES: CCOCC(=O)N1CCC(Cc2ccccc2)CC1
- cell number change: 38.8%
- AC50 [1]: 29.1 µM [rising, single point]

SMILES: COc1ccccc1N1CCN(CCCCN2C(=O)C3CCCCN3C2=O)CC1 (centres undefined)
- cell number change: 11.3%
- AC50 [1]: 29.1 µM [rising, single point]

SMILES: CCOC(=O)C(=CNc1ccc2c(c1)c1ccccc1n2CC)C(=O)OCC
- cell number change: 0.12%
- AC50 [1]: 5.17 µM [rising, partial curve]

SMILES: CCc1c(C)nc(SCC(=O)Nc2ccc(Br)cc2)[nH]c1=O
- AC50 [2]: 0.651 µM [falling, single point]
- AC50 [1]: 0.013 µM [falling, full curve]

SMILES: O=C(O)Cn1c(P(=O)(O)c2ccccc2)nc2ccccc21
- cell number change: -13.5%

SMILES: CC(C)Oc1ccc(C(=O)Nc2ccccc2N2CCCC2)cc1
- cell number change: 0.322%
- AC50 [1]: 2.91 µM [falling, partial curve]

SMILES: Cc1ccc(-c2csc(C3=C(O)CN(NC(=O)c4ccc([N+](=O)[O-])cc4)C3=N)n2)cc1
- cell number change: -61.8%

SMILES: Cc1ccsc1C(=O)N1CCN(S(=O)(=O)c2cccs2)CC1
- AC50 [1]: 0.116 µM [rising, full curve, poor fit]

SMILES: COc1ccc(-c2cc(C(F)(F)F)n3nc(C(=O)NCc4ccco4)cc3n2)cc1OC
- cell number change: -48.1%
- AC50 [2]: 0.184 µM [falling, full curve, poor fit]
- AC50 [1]: 25.9 µM [falling, partial curve]

SMILES: Cc1ccccc1C(=O)Nc1ccc(Br)cn1
- cell number change: -11.3%
- AC50 [1]: 0.82 µM [falling, full curve, poor fit]

SMILES: COc1ccc(OC)c(C2/C(=C(\O)c3ccc(OC)c(Cl)c3)C(=O)C(=O)N2CCN(C)C)c1 (centres undefined)
- cell number change: -198%
- AC50 [2]: 23.1 µM [falling, partial curve]

SMILES: COc1ccccc1-c1nc(C#N)c(N2CC(C)CC(C)C2)o1 (centres undefined)
- cell number change: -35.1%

SMILES: COc1ccc(NC(=O)C2CCCN(c3ncccn3)C2)cc1 (centres undefined)
- cell number change: 21%
- AC50 [2]: 0.164 µM [rising, full curve, poor fit]

SMILES: COc1ccc(OC)c(NC(=O)C(=O)NCCC2=CCCCC2)c1
- cell number change: -3.74%
- AC50 [1]: 3.26 µM [rising, single point]

SMILES: CC(C)=CC(=O)Nc1nc2ccc([N+](=O)[O-])cc2s1
- cell number change: -5.54%

SMILES: CCOC(=O)N1CCN(C(=O)c2ccc(N3CC4CC(C3)c3cccc(=O)n3C4)c(NC(=O)c3ccc(F)cc3)c2)CC1 (centres undefined)
- cell number change: 15.3%

SMILES: CCCCC(CC)C(=O)Nc1cc(C(=O)NCc2ccc(C)cc2)ccc1N1CCC2(CC1)CC(c1ccccc1)=NO2 (centres undefined)
- cell number change: 45.3%
- AC50 [2]: 32.6 µM [rising, partial curve]

SMILES: COc1ccc(-c2cc(N3CCCC3)n3ncnc3n2)cc1
- AC50 [2]: 2.06 µM [rising, partial curve]
- AC50 [1]: 6.51 µM [rising, single point]

SMILES: CCC(C)c1ccccc1NC(=O)CN(C)CC(=O)Nc1ccccc1SC (centres undefined)
- cell number change: -2.02%
- AC50 [1]: 0.13 µM [falling, full curve, poor fit]

SMILES: CN(C(=O)CSC(=O)c1ccccc1)c1ccccc1
- cell number change: -7.62%
- AC50 [1]: 6.51 µM [rising, single point]

SMILES: N#C/C(=C\c1c(F)cccc1Cl)c1nn(-c2ccccc2)c(-n2cccc2)c1C#N
- cell number change: 9.76%
- AC50 [1]: 0.731 µM [rising, full curve, poor fit]

SMILES: COC(=O)c1cc2occc2n1Cc1nc(-c2ccccc2Cl)oc1C
- cell number change: -19.2%
- AC50 [1]: 9.2 µM [rising, partial curve]

SMILES: CCCCN1CCc2c1nc1ccc(Br)cc1c2N
- AC50 [1]: 5.17 µM [falling, single point]

SMILES: Cc1cccc(NC(=O)CN2C(=O)CCSc3ccc(S(=O)(=O)N4CCOCC4)cc32)c1C
- cell number change: 26.7%

SMILES: Cc1ccc(S(=O)(=O)N/N=C/c2cn(C)nc2C)cc1
- cell number change: 32.4%
- AC50 [2]: 3.26 µM [rising, partial curve, poor fit]

SMILES: COc1ccc(N2C(=O)NC3CC2(C)Oc2ccc(Br)cc23)cc1OC (centres undefined)
- cell number change: 5.83%
- AC50 [2]: 0.517 µM [falling, partial curve, poor fit]

SMILES: COc1ccc(C)cc1NC(=O)CN1CCN(c2ccccn2)CC1
- cell number change: 2.08%
- AC50 [1]: 5.17 µM [rising, single point]

SMILES: CCOC(=O)c1cc(-c2ccccc2)n(CCC(=O)N2CCN(c3ccc(OC)cc3)CC2)c1C
- cell number change: 5.71%
- AC50 [1]: 0.651 µM [rising, single point]

SMILES: Cc1nnc(N/N=C/c2c(Cl)cccc2Cl)n1N
- cell number change: -60.6%
- AC50 [2]: 29.1 µM [falling, single point]
- AC50 [1]: 0.291 µM [falling, full curve, poor fit]

SMILES: O=S1(=O)CC(O)C(Nc2ccccc2)C1 (centres undefined)
- cell number change: -10.7%
- AC50 [1]: 4.61 µM [falling, single point]

SMILES: O=C(CNC(=O)c1cccc(Br)c1)N/N=C/c1ccc2c(c1)OCO2
- cell number change: 14.8%

SMILES: CSc1ccc(CNC(=O)CCn2ccc3cc(S(=O)(=O)N4CCCC4)ccc32)cc1
- cell number change: 16.7%
- AC50 [1]: 29.1 µM [rising, single point]

SMILES: Cc1cccc(C)c1N(CC(=O)N1CCOCC1)S(C)(=O)=O
- AC50 [1]: 2.91 µM [falling, single point]

SMILES: COc1ccc(-c2c(-c3ccc4c(c3)OCO4)noc2C)cn1
- cell number change: 13.8%
- AC50 [1]: 0.651 µM [rising, single point]

SMILES: CCC(C)n1ncn(-c2ccc(N3CCN(c4ccc(O)cc4)CC3)cc2)c1=O (centres undefined)
- AC50 [1]: 0.651 µM [rising, full curve, poor fit]

SMILES: Cc1[nH]c(-c2ccc(F)cc2)cc1C(=O)N1CCN(c2ccccc2)CC1
- cell number change: -17.6%
- AC50 [1]: 29.1 µM [falling, single point]

SMILES: Cc1ccc(C)c(S(=O)(=O)N2CCCCC2CCNC(=O)C(=O)NCc2ccco2)c1 (centres undefined)
- cell number change: -11%
- AC50 [1]: 16.4 µM [falling, partial curve, poor fit]

SMILES: COc1ccc(CCNC(=O)COC(=O)c2ccc(N3CCCC3=O)cc2)cc1OC
- cell number change: -22.1%
- AC50 [1]: 2.06 µM [falling, partial curve]

SMILES: Cc1ccccc1NC(=O)/C(C#N)=C/c1ccsc1
- cell number change: -11.5%
- AC50 [1]: 11.6 µM [falling, single point]

SMILES: COc1ccc(NC(=O)CC2SC(N3CCOCC3)=NC2=O)cc1OC (centres undefined)
- cell number change: 20%
- AC50 [1]: 29.1 µM [rising, single point]

SMILES: C=CCn1c(=O)/c(=C2/Sc3ccccc3N2CC)s/c1=C1/C(=O)NN=C1C
- cell number change: -13.8%
- AC50 [1]: 29.1 µM [falling, single point]

SMILES: O=C(CCNC(=O)c1ccccc1Cl)Nc1nnc(C2CC2)s1
- cell number change: 67.2%
- AC50 [2]: 29.1 µM [rising, single point]

SMILES: COc1cccc(NC(=O)c2cccc(C(=O)Nc3cccc(OC)c3)c2)c1
- cell number change: 12.9%
- AC50 [1]: 0.82 µM [falling, full curve, poor fit]

SMILES: CCOc1ccc(CCNS(=O)(=O)c2ccc(-c3ccc(=O)[nH]n3)o2)cc1OCC
- AC50 [1]: 6.51 µM [falling, single point]

SMILES: CC1(C)CC(=O)C(N=Nc2c(Cl)cc(Cl)cc2Cl)=C(O)C1
- cell number change: 33.1%

SMILES: Cc1ccc(C(=O)CCC(=O)NCc2ccc(Cl)cc2)cc1
- cell number change: 1.34%
- AC50 [1]: 0.00461 µM [rising, full curve, poor fit]

SMILES: Cc1occc1-c1nnc(SCC(=O)c2cc3ccccc3oc2=O)o1
- cell number change: -12.9%

SMILES: Cc1[nH]nc(N=CC2=C(O)CC(c3ccco3)CC2=O)c1-c1ccccc1 (centres undefined)
- cell number change: -19.8%
- AC50 [1]: 20.6 µM [falling, single point]

SMILES: CC1=C(C#N)C(c2ccccc2O)C(C#N)=C(C)N1
- cell number change: 57.1%

SMILES: CCOC(=O)C1CCN(C(=O)c2sc3nc(-c4ccccc4)cn3c2C)CC1
- AC50 [2]: 2.31 µM [rising, single point]
- AC50 [1]: 3.66 µM [rising, partial curve]

SMILES: CCOc1ccc(NC(=O)N2CCC(NC(=O)C(Cc3ccc(OC)c(OC)c3)NC(C)=O)CC2)cc1 (centres undefined)
- cell number change: 16.8%
- AC50 [1]: 0.0058 µM [rising, full curve, poor fit]

SMILES: COc1ccc(NC(=O)c2c(C)nn(Cc3ccccc3)c2Cl)cc1S(=O)(=O)N1CCOCC1
- AC50 [2]: 0.517 µM [rising, single point]

SMILES: CCN(c1ccc(OC)cc1)S(=O)(=O)c1cc(-c2cc(C)no2)ccc1OC
- AC50 [1]: 29.1 µM [falling, single point]

SMILES: CC(=O)N1c2ccc(S(=O)(=O)NCCC(=O)NCCc3ccc(C)cc3)cc2CC1C (centres undefined)
- cell number change: -12.9%
- AC50 [1]: 6.51 µM [rising, single point]

SMILES: COC(=O)c1ccc(NC(=O)C2CC(=O)OC2c2ccccc2)cc1 (centres undefined)
- cell number change: 19.6%
- AC50 [1]: 0.206 µM [rising, full curve, poor fit]

SMILES: Cc1onc(-c2ccccc2Cl)c1C(=O)Nc1ccccc1N1CCOCC1
- cell number change: 15.3%
- AC50 [1]: 2.06 µM [rising, partial curve]

SMILES: O=C1CC(C(=O)N(c2ccc(F)cc2)C(C(=O)NC2CCCC2)c2ccccn2)CS1 (centres undefined)
- AC50 [2]: 6.51 µM [rising, single point]

SMILES: CCCc1c(C)c2cc(C)ccc2[nH]c1=O
- cell number change: -20.1%

SMILES: CC(/C=C/c1ccco1)=N\NC(=O)COc1ccc(C)c(C)c1
- cell number change: -25.1%
- AC50 [1]: 2.91 µM [falling, full curve, poor fit]

SMILES: COc1ccc(CCNC(=O)CCc2ccc(S(=O)(=O)NCC(C)C)cc2)cc1
- AC50 [1]: 10.3 µM [rising, partial curve, poor fit]

SMILES: CC(C)CCNC(=O)C1CCCN(S(=O)(=O)c2ccc(-n3cnnn3)cc2)C1 (centres undefined)
- cell number change: 0.435%
- AC50 [1]: 0.58 µM [rising, single point]

SMILES: Cc1csc(SC(C)C(=O)Nc2ccccc2C)n1 (centres undefined)
- cell number change: 7.44%
- AC50 [2]: 0.461 µM [rising, single point]
- AC50 [1]: 14.6 µM [rising, partial curve]

SMILES: Cc1cc(Cl)ccc1OCC(=O)Nc1ccccc1C(=O)N1CCOCC1
- cell number change: -10.7%
- AC50 [1]: 29.1 µM [falling, single point]
